{"source": "paper PMC8840930", "biological_target": "T1, 3xHA-PTPN18, Q99952", "T1 chain": "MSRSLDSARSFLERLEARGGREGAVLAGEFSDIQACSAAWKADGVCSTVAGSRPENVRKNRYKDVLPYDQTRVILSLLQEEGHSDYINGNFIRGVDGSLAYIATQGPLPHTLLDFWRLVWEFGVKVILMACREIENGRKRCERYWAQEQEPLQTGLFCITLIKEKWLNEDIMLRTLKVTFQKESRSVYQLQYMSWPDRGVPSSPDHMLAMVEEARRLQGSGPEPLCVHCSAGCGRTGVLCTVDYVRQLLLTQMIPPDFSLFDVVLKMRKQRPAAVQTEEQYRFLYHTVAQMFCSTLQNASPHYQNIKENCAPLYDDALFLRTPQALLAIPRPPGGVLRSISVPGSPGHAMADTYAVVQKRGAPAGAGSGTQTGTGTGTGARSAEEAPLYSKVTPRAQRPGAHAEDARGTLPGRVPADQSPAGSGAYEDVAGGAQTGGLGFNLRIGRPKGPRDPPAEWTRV", "experiment": "co-IP; HEK293 cells transfected with PSTPIP1 (wild type or mutant) and 3xHA-PTPN12 or 3xHA-PTPN18; IP anti-HA, immunoblot with PSTPIP1 antibody; TNE lysis buffer with 1% NP-40", "conditions": "remark: other sources report otherwise", "note": "Results are given in words; binding and its absence hold for the method and conditions named. Binding seen in cells or lysates may run through a third protein. Some results given as binding are weak or reduced against the parent protein; the word gives no strength. Where a sequence is shown, tags or fusion partners need not be part of it.", "data": [{"binder": "PSTPIP1-V5 wild type, O43586 1-416 (protein) MMPQLQFKDAFWCRDFTAHTGYEVLLQRLLDGRKMCKDMEELLRQRAQAEERYGKELVQIARKAGGQTEINSLRASFDSLKQQMENVGSSHIQLALTLREELRSLEEFRERQKEQRKKYEAVMDRVQKSKLSLYKKAMESKKTYEQKCRDADDAEQAFERISANGHQKQVEKSQNKARQCKDSATEAERVYRQSIAQLEKVRAEWEQEHRTTCEAFQLQEFDRLTILRNALWVHSNQLSMQCVKDDELYEEVRLTLEGCSIDADIDSFIQAKSTGTEPPAPVPYQNYYDREVTPLTSSPGIQPSCGMIKRFSGLLHGSPKTTSLAASAASTETLTPTPERNEGVYTAIAVQEIQGNPASPAQEYRALYDYTAQNPDELDLSAGDILEVILEGEDGWWTVERNGQRGFVPGSYLEKL", "values": [{"measurement": "binding", "result": "binds"}]}]}
